We go through four targets from the supplement of paper PMC10849652.

Amino acid sequences for entries named in this document (tags omitted). A change or cut given only in a name is not applied to a line headed by its entry.
UniProt Q9Y2W1: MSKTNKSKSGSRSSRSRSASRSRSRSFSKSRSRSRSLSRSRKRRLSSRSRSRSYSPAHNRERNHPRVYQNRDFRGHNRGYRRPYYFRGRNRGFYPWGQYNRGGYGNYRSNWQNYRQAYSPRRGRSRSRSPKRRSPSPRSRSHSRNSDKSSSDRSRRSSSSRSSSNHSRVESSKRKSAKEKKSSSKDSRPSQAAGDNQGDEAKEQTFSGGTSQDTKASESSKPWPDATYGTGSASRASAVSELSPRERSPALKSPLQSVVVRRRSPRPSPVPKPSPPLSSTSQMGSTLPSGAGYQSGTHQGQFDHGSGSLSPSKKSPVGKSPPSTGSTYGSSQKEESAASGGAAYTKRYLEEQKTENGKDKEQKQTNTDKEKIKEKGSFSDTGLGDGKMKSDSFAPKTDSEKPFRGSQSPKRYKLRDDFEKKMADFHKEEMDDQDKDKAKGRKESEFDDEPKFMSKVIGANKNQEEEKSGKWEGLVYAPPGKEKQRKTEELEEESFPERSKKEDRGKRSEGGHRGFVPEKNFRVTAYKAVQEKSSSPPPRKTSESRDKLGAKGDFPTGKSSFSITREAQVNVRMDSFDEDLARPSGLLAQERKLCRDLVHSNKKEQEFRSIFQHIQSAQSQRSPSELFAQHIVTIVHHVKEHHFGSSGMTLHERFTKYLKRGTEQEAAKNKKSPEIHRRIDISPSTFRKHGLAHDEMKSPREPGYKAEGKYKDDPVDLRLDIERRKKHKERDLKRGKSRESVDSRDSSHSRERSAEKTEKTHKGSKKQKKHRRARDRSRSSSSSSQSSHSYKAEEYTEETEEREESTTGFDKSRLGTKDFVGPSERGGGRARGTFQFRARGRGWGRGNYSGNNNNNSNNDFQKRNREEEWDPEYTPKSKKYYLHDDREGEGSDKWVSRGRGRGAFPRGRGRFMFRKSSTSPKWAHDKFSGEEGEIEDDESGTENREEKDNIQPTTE
UniProt Q13769: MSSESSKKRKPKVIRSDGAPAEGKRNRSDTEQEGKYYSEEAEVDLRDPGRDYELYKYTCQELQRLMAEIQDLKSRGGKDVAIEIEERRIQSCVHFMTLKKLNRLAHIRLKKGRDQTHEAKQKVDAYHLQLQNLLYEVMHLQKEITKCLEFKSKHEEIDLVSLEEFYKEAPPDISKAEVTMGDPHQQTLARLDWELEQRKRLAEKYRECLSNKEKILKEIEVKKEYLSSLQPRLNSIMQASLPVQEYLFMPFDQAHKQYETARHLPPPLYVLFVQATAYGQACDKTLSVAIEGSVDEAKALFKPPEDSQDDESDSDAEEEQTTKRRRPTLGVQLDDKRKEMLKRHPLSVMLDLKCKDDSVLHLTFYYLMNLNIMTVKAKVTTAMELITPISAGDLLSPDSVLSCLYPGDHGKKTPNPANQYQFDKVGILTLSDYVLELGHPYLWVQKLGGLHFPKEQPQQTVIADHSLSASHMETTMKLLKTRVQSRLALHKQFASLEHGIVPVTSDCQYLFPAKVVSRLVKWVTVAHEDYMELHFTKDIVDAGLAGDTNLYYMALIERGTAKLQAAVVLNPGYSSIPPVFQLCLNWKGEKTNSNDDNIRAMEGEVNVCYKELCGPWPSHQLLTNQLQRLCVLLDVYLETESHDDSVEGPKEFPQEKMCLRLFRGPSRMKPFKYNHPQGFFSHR
UniProt Q96CP7: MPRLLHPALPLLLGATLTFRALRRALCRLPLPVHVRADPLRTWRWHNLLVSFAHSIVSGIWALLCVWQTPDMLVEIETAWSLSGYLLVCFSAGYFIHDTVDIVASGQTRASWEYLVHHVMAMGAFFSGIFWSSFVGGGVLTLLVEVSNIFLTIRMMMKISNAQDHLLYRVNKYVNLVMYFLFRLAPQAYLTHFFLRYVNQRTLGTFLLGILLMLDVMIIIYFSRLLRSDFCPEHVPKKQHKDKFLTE
UniProt P01033: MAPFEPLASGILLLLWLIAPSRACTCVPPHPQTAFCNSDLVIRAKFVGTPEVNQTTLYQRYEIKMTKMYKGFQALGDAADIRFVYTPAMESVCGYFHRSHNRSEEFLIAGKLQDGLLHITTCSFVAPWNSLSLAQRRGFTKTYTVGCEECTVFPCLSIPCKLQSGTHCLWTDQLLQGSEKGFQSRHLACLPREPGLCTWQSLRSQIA

This is one part of the list. Residues, ends and D or L forms follow the SMILES beside them. *: point of attachment. Cbz = O=C(OCc1ccccc1)*

What all share (experiment): log2 fold change, soluble protein after heating vs DMSO (PISA); higher = thermal stabilisation; K562 cells, 10 uM, 30 min; active = over 0.2 and 3.5 SD of the protein, either way, in both replicates (recomputed)
Compound in assay [1]: C#Cc1cccc(Nc2ncnc3cc(OCCOC)c(OCCOC)cc23)c1 [erlotinib]
The gist of the method:
(§1)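 Quantification of soluble protein used TMTpro 16plex LC-MS/MS, with channel sums equalised. Samples were the supernatant after 21,000xg for 90 min of pooled aliquots from K562 cells (2×10^6 cells/mL) treated with 10 μM compound for 30 min, heated for 3 min over 48°C-58°C, and extracted in PBS with 0.5% NP-40 at 4°C. Values, from duplicates, describe thermal stability against control samples on a log2 fold-change scale.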

Compound in assay [2]: C/C(=N\NC(=O)C1=CC(=CC=C1)S(=O)(=O)N2CCOCC2)/C3=C(C=CC(=C3)Cl)O
The gist of the method: as §1

Compound in assay [3]: C1=CC(=C(C=C1Cl)C2=NC3=NC=CN=C3C(=N2)NC4=CC=NC=C4)F
The gist of the method: as §1

Compound in assay [4]: C1=CC(=CC=C1C2=NC3=C(N2)C=C(C=C3)C(=O)N)OC4=CC=C(C=C4)Cl
Put shortly: as §1

Compound in assay [5]: C1=CC2=C(C=CC(=C2)/C=C\3/C(=O)NC(=NCC4=CC=CS4)S3)N=C1
The gist of the method: as §1

Compound in assay [6]: C1=CC2=NC=CN=C2C=C1/C=C/3\C(=O)NC(=O)S3
Put shortly: as §1

Compound in assay [7]: C1=CC=C(C=C1)C2=NC(=C(N2)C3=CC=NC=C3)C4=CC(=C(C=C4)Cl)O
The gist of the method: as §1

Compound in assay [8]: C1=CC=C2C(=C1)C3=NNC4=CC=CC(=C43)C2=O
Put shortly:
as §1

Compound in assay [9]: C1CCN(C1)C(=O)NC2=CC=CC(=C2)NC3=NC=C(C(=N3)NCCC4=CN=CN4)Br
Put shortly:
as §1

Compound in assay [10]: C1CN(CCC1(CC2=CC=C(C=C2)Cl)N)C3=NC=NC4=C3C=CN4
Put shortly:
as §1

Compound in assay [11]: C1COCCN1CCN2C3=CC=CC=C3N=C2NC(=O)C4=CC(=CC=C4)[N+](=O)[O-] [IRAK-1-4 Inhibitor I]
The gist of the method:
as §1

Compound in assay [12]: C=CC(=O)N1CCC[C@@H](n2nc(-c3ccc(Oc4ccccc4)cc3)c3c(N)ncnc32)C1 [ibrutinib]
The gist of the method:
as §1

Compound in assay [13]: CC(=O)c1cnc2ccc(-c3cc(Cl)c(O)c(Cl)c3)nc2c1N[C@H]1CC[C@H](CN(C)C)CC1
The gist of the method: as §1

Compound in assay [14]: CC(C)(C)Cn1c(N)nc2ccc(-c3[nH]c(C(C)(C)C)nc3-c3ccc(F)cc3)nc21 [ralimetinib]
The gist of the method:
as §1

Compound in assay [15]: CC(C)(O)CC(=O)NCCn1ccc2ncnc(Nc3ccc(Oc4cccc(C(F)(F)F)c4)c(Cl)c3)c21
The gist of the method:
as §1

Compound in assay [16]: CC(C)C1=C2N=C(C=C(N2N=C1)NCC3=CC=CC=C3)NCCCCCCN
Put shortly: as §1

Compound in assay [17]: CC(C)C[C@@H](C=O)NC(=O)[C@H](CC(C)C)NC(=O)[C@H](CC(C)C)NC(=O)OCc1ccccc1
Put shortly:
as §1

Compound in assay [18]: CC(C)N(C[C@H]1O[C@@H](n2cnc3c(N)ncnc32)[C@H](O)[C@@H]1O)[C@H]1C[C@@H](CCc2nc3cc(C(C)(C)C)ccc3[nH]2)C1 [pinometostat]
Put shortly:
as §1

Compound in assay [19]: CC1=C(C2=C(C=C1)C(=O)C3=CC=CC=C3N2CCCN)C
The gist of the method: as §1

Compound in assay [20]: CC1=C(C(CC(=O)N1)C2=CC=C(C=C2)C(F)(F)F)C(=O)NC3=C(C=C4C(=C3)C=NN4)F
The gist of the method:
as §1

For the target THRAP3 (UniProt Q9Y2W1), the log2 fold change is inactive: 0.081 in assay [1]; inactive: 0.023 in assay [2]; inactive: -0.071 in assay [3]; inactive: 0.067 in assay [4]; inactive: -0.094 in assay [5]; inactive: -0.002 in assay [6]. In addition, the log2 fold change was inactive: -0.097 in [7]; inactive: -0.171 in [8]; inactive: 0.038 in assay [9]; inactive: -0.09 in assay [10]; inactive: -0.116 in assay [11]; inactive: 0.01 in assay [12]. For the same target, the log2 fold change was active: -0.581 in [13]; inactive: -0.026 in [14]; inactive: -0.032 in [15]; inactive: -0.12 in assay [16]; inactive: 0.075 in assay [17]; inactive: 0.057 in [18]. The log2 fold change in assay [19] is inactive: -0.018.
In the case of THOC5 (UniProt Q13769), the log2 fold change in assay [1] was inactive: -0.101; in assay [2], inactive: 0.066; in [3] it was inactive: -0.032; in [4] it was inactive: 0.021; in assay [5] it was inactive: -0.035; in assay [6] it was inactive: 0.012. Besides, the log2 fold change was inactive: -0.074 in assay [7]; inactive: 0.004 in assay [8]; inactive: -0.025 in assay [9]; inactive: -0.017 in [10]; inactive: 0.028 in assay [11]; inactive: -0.039 in [12]. For the same target, the log2 fold change in assay [13] was inactive: -0.071; in assay [14], inactive: -0.03; in assay [15], inactive: 0.007; in assay [16] it was inactive: 0.028; in assay [17], inactive: 0.073; in [18], inactive: 0.012. Also, the log2 fold change in [20] is inactive: -0.004; in assay [19] it was inactive: 0.093.
As to TLCD1 (UniProt Q96CP7), the log2 fold change in assay [1] was inactive: 0.026; in [2] it was inactive: 0.186; in assay [3], inactive: -0.115; in assay [4] it was inactive: 0.326; in assay [5], inactive: 0.069; in assay [6] it was inactive: -0.054. Moreover, the log2 fold change in [7] is inactive: 0.133; in [8], inactive: 0.028; in assay [9] it was inactive: 0.017; in assay [10] it was inactive: 0.078; in assay [11] it was inactive: 0.043; in [12], inactive: 0.048. For the same target, the log2 fold change was inactive: 0.115 in [13]; inactive: 0.065 in assay [14]; inactive: -0.238 in [15]; inactive: 0.015 in [16]; inactive: -0.101 in assay [17]; inactive: -0.041 in assay [18]. The log2 fold change was inactive: -0.043 in [20] and inactive: 0.193 in [19].
On to TIMP1 (UniProt P01033), for which the log2 fold change is inactive: -0.014 in [1]; inactive: 0.04 in assay [2]; inactive: -0.017 in assay [3]; inactive: -0.065 in assay [4]; inactive: -0.015 in assay [5]; inactive: -0.047 in assay [6]. Also, the log2 fold change was inactive: 0.053 in [7]; inactive: -0.043 in [8]; inactive: -0.002 in assay [9]; inactive: 0.03 in assay [10]; inactive: 0.014 in [11]; inactive: 0.027 in assay [12]. For the same target, the log2 fold change is inactive: 0.01 in [13]; inactive: -0.001 in [14]; inactive: 0.05 in [15]; inactive: 0.119 in assay [16]; inactive: -0.076 in [17]; inactive: 0.032 in assay [18]. Further, the log2 fold change in assay [20] is inactive: -0.02; in assay [19], inactive: -0.144.
